These results are taken from PubChem BioAssay AID651660 (Broad Institute, 2012).

The chains behind the UniProt entries cited, without tags or fusion partners. Where a name states a change or a piece, a line headed by the entry shows the natural chain unless it says otherwise.
UniProt P43351: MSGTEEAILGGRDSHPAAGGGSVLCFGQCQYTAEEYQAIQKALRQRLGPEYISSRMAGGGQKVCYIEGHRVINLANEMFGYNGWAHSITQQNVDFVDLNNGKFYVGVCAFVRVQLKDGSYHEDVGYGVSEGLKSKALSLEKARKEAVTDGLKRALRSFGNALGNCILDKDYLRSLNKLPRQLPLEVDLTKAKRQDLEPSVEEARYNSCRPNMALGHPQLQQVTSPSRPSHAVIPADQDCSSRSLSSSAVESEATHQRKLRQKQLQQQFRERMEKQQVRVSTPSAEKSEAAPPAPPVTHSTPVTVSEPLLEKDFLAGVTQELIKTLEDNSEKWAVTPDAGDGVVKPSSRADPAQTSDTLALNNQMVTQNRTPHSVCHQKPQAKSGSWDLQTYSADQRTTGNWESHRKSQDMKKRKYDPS

About 15 (0.8%) of roughly 1,900 compounds were called active.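 The calls were made as follows: active = every replicate shows at least 50% inhibition; inconclusive = mean inhibition at least 50% but some replicate below; inactive = the rest.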 The list shows a part of the results.

The assay deals with DNA repair protein RAD52 homolog (Homo sapiens) (UniProt P43351). As to the kind of experiment: inhibition of RAD52-mediated strand annealing – biochemical, FRET, single point, primary screen (AID 651660).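 Also: 0% = median of neutral control wells and 100% = median of positive control wells.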 As to conditions: Recombinant RAD52 ssDNA annealing, FRET fluorescence, 30 min; at 18.7 µM; hits give high values.
As to `COc1ccc(CN2CC3CC(C2)c2cccc(=O)n2C3)cc1OC` (stereo unspecified), the inhibition was inactive: -36.3%.

As to `COc1ccc(OC)c(C(O)C(C)N)c1` (stereo unspecified), the inhibition was inactive: -0.425%.

Turning to `Cn1c(O)c(C=NCCc2c[nH]c3ccccc23)c(=O)n(C)c1=O`, the inhibition is inactive: 0.501%.

Turning to `COc1ccc(NC2=NCC(C)S2)cc1` (stereo unspecified), the inhibition was inactive: 1.6%.

Turning to `c1ccc2c3c([nH]c2c1)CNCC3`, the inhibition is inactive: -8.2%.

As to `CC(=O)[C@H]1CC[C@H]2[C@@H]3CC[C@H]4C[C@H](O)CC[C@]4(C)[C@H]3C(=O)C[C@]12C`, the inhibition is inactive: -3.97%.

On to `CC(C)CCC1(CN2CCCC2=O)C(=O)NC(=O)NC1=O`, for which the inhibition is inactive: -4.57%.

Take `CCOc1ccc(N2C(=O)NC(=O)/C(=C\c3cc(OC)c(OC)cc3[N+](=O)[O-])C2=O)cc1`: the inhibition was inactive: -29.5%.

As for `C[C@]12CC[C@@H]3c4ccc(O)c(O)c4CC[C@H]3[C@@H]1CC[C@@H]2O`, the inhibition was inactive: 1.02%.

On to `CCN(CC)CCOC(=O)C(O)(c1ccccc1)c1ccccc1`, for which the inhibition was inactive: -2.73%.

With `Cc1ccc2c(c1)C1CN(C)CCC1N2C(=O)Nc1cccc(Cl)c1` (stereo unspecified), the inhibition is inactive: -5.83%.

`CCCC(=O)OCC[N+](C)(C)C`: the inhibition is inactive: -0.115%.

As for `CC(=O)c1ccc(-c2ccccc2)cc1`, the inhibition was inactive: 6.59%.

Take `C[C@]12CCC(=O)C(O)=C1CC[C@@H]1[C@@H]2CC[C@]2(C)C(=O)CC[C@@H]12`: the inhibition was inactive: -0.887%.

As for `COc1ccccc1CN1CCCCC1c1cccnc1` (stereo unspecified), the inhibition was inactive: -1.64%.

For `CC12CN3CC(C)(CN(C1)C3c1cccs1)C2=O` (stereo unspecified), the inhibition is inactive: -2.15%.

For `Nc1ccc([As](=O)(O)O)cc1`, the inhibition was inactive: 7.08%.

As for `c1ccc2c(c1)[nH]c1cnccc12`, the inhibition was inactive: -1.28%.

Turning to `O=Cc1cn(Cc2ccc(F)cc2)c2ccccc12`, the inhibition was inactive: 7.25%.

On to `CC(C)C(=O)Nc1ccc(S(=O)(=O)N2CC3CC(C2)c2cccc(=O)n2C3)cc1` (stereo unspecified), for which the inhibition is inactive: -1.51%.

In the case of `CN[C@H](C)[C@H](O)c1ccccc1`, the inhibition was inactive: -7.94%.

For `Cc1cc(Cl)ccc1OC(C)C(=O)O` (stereo unspecified), the inhibition was inactive: -13.2%.

With `CC(=O)Nc1cc([As](=O)(O)O)ccc1O`, the inhibition was inactive: 3.96%.

As to `O=c1[nH]c2ccccc2n1C1CCN(CCCC(c2ccc(F)cc2)c2ccc(F)cc2)CC1`, the inhibition is inactive: 21.9%.

Consider `C[C@]12CCC(=O)C=C1CCC1C2CC[C@@]2(C)C1CC[C@@]2(O)CC#N` (stereo partly specified), for which the inhibition was inactive: -5.13%.

`CC12CN3CC(C)(CN(C1)C3c1cccnc1)C2=O` (stereo unspecified): the inhibition was inactive: -5.86%.

One may read the inhibition as the drop in the measured response relative to a control, in per cent.
